The values below come from patent publication US20220411799.

Series [1] has as its target DNMT1 (endogenous) (Homo sapiens) (UniProt P26358). Briefly: pull-down. The conditions noted are these: 2'-F pyrimidines, 200 nM biotinylated aptamer, K562 extract, protein in an extract, protein details: K562 cell extract, label: 3'-biotin (ELONA, pulldown).
For series [2] the target is unchanged. Briefly: activity in cells. The conditions noted are these: 2'-F pyrimidines, nuclear extracts of transfected K562 cells, protein in an extract, protein details: K562 cell extract, dose not given here.
Series [3] concerns the target DNMT3A (UniProt Q9Y6K1). Kind of series: inhibition of the protein. The following applies: 2'-F pyrimidines, no effect on enzymatic activity, purified recombinant protein, label: 3'-biotin (ELONA, pulldown), dose not given here.
Series [4] addresses DNMT3B (UniProt Q9UBC3). Briefly: inhibition of the protein. The conditions noted are these: 2'-F pyrimidines, no effect on enzymatic activity, purified recombinant protein, label: 3'-biotin (ELONA, pulldown), dose not given here.
For series [5], the target named is DNMT1 (Homo sapiens) (UniProt P26358). Kind of series: EMSA. The conditions noted are these: 2'-F pyrimidines; two alternative secondary structures of R5F; purified recombinant protein; label: 3'-biotin (ELONA, pulldown). In general terms: Mobility shift assays separate free from complexed probe on a gel.
The mark [6] stands for this setting: variant of Ce-10 (long, 61-mer).

For part of these data: A negative result means that nothing was seen under these conditions. For part of these data: A weaker result is weaker than the reference pair of the same experiment. For part of these data: Construct, isoform or probe ends are uncertain for at least one entry. For part of these data: Results from cells or extracts need not show a direct contact.

For the sequence CUGAGGCCUAACGAAGGCUUCU [Ce-49 sh], the binding result in series [1] is “binds”. In addition, the entries for the “functional effect of the aptamer” value in series [2], in series [3] and in series [4] were “active”, “not active” and “not active”, respectively.

On to UUACUGGGCUGAGGUAAUGGCGAGG [Ce-10-2 sh], for which the binding result in series [1] (setting [6]) was “binds”. Moreover, the “functional effect of the aptamer” value was “active” in series [2] (setting [6]), “not active” in series [3] (setting [6]) and “not active” in series [4] (setting [6]).

For “CUGAGGCCUUGGCGAGGCUUCU [R5-F (DNMT1 bait)]”, the figures for the binding result in series [5] and in series [1] were “binds more weakly” and “binds”, respectively. Besides, the “functional effect of the aptamer” value in series [3] and in series [4] was “not active” in each case.
